Here are results for five molecules from PMC5025166.

By UniProt entry, the sequences of proteins in these tests, tags left out.
UniProt Q925T6: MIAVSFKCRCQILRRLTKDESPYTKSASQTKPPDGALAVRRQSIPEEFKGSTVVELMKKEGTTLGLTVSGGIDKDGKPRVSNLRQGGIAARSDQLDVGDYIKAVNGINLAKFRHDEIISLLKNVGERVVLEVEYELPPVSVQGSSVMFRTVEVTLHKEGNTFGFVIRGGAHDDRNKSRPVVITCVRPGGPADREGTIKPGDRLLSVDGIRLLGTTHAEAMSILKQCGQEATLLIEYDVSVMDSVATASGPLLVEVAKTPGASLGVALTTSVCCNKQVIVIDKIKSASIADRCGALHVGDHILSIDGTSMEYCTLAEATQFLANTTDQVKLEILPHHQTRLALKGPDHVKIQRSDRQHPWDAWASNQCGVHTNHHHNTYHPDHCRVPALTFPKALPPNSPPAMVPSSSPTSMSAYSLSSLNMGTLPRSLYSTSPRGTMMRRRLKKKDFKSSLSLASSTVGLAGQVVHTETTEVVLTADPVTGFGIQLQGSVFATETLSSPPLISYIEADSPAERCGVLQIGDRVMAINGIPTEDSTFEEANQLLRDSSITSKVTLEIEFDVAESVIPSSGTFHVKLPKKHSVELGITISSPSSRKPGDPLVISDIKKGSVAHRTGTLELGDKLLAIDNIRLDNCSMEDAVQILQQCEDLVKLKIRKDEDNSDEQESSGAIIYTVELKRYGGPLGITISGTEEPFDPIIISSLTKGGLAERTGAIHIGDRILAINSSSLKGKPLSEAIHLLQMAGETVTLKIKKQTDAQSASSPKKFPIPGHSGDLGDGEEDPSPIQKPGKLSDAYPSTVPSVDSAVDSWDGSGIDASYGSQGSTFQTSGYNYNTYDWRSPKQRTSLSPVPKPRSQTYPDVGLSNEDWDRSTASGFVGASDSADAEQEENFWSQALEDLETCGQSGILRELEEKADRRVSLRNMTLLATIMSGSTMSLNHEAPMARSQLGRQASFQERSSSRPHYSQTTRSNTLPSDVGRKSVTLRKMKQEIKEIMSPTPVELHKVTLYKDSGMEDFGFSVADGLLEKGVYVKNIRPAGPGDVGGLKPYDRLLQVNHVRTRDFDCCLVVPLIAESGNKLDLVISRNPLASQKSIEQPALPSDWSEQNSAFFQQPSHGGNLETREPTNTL
UniProt P63101: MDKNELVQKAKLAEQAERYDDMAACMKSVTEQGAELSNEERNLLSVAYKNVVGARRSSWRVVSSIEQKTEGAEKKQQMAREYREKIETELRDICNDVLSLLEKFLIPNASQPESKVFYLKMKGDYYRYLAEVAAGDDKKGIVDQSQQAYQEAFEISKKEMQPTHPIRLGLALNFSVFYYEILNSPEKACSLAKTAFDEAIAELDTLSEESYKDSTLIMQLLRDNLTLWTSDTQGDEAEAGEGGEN
UniProt P17742: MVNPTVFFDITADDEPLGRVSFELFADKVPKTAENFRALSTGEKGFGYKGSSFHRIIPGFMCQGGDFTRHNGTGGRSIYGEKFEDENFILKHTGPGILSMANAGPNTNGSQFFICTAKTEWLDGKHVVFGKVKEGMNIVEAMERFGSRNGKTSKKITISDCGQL

The target in this experiment is Glutamate receptor interacting protein 1 (mouse (endogenous in mouse platelets)) (UniProt Q925T6). Description: affinity purification with mass spectrometry; GRIP1 immunoprecipitated (sc-29834) from WT mouse platelets, GRIP1-/- platelets as negative control; band excision, trypsin digestion, LTQ LC/MS.

These are yes or no findings as the source states them, for the method shown. Binding seen in cells or lysates may run through a third protein. Here binding means that the protein was enriched with, or labelled near, the bait; the list need not be complete.

For 14-3-3ζ (from UniProt P63101 1-245), the binding result is recorded as “binds”. With “Cyclophilin A (from UniProt P17742 1-164)”, the binding entry was “binds”.

B1: Zyxin (protein, UniProt Q62523 1-564)
chain: MAAPRPPPAISVSVSAPAFYAPQKKFAPVVAPKPKVNPFRPGDSEPPVAAGAQRAQMGRVGEIPPPPPEDFPLPPPPLIGEGDDSEGALGGAFPPPPPPMIEEPFPPAPLEEDIFPSPPPPLEEEGGPEAPTQLPPQPREKVCSIDLEIDSLSSLLDDMTKNDPFKARVSSGYVPPPVATPFVPKPSTKPAPGGTAPLPPWKTPSSSQPPPQPQAKPQVQLHVQPQAKPHVQPQPVSSANTQPRGPLSQAPTPAPKFAPVAPKFTPVVSKFSPGAPSGPGPQPNQKMVPPDAPSSVSTGSPQPPSFTYAQQKEKPLVQEKQHPQPPPAQNQNQVRSPGGPGPLTLKEVEELEQLTQQLMQDMEHPQRQSVAVNESCGKCNQPLARAQPAVRALGQLFHITCFTCHQCQQQLQGQQFYSLEGAPYCEGCYTDTLEKCNTCGQPITDRMLRATGKAYHPQCFTCVVCACPLEGTSFIVDQANQPHCVPDYHKQYAPRCSVCSEPIMPEPGRDETVRVVALDKNFHMKCYKCEDCGKPLSIEADDNGCFPLDGHVLCRKCHSARAQT
In the case of B1, the binding result is “binds”.

B2: Pleckstrin (protein, UniProt Q9JHK5 1-350)
chain: MEPKRIREGYLVKKGSVFNTWKPMWVVLLEDGIEFYKKKSDNSPKGMIPLKGSTLTSPCQDFGKRMFVLKITTTKQQDHFFQAAFLEERDAWVRDIKKAIKCIEGGQKFARKSTRRSIRLPETIDLGALYLSMKDPEKGIKELNLEKDKKVFNHCLTGSGVIDWLVSNKLVRNRQEGLMISASLLSEGYLQPAGDLSKNAADGIAENPFLDSPDAFYYFPDSGFFCEENSSDDDVILREEFRGVIIKQGCLLKQGHRRKNWKVRKFILREDPAYLHYYDPAGGEDPLGAVHLRGCVVTSVESSHDVKKSDEENLFEIITADEVHYYLQAATSKERTEWIKAIQVASRTGK
In the case of B2, the binding result is “binds”.

B3: GPIbβ (receptor, UniProt P56400 27-206)
chain: PAPCSCAGTLVDCGRRGLTWASLPAAFPPDTTELVLTGNNLTALPPGLLDALPALRAAHLGANPWRCDCRLLPLRAWLAGRPERAPYRDLRCVAPPALRGRLLPYVAEDELRAACAPGLLCWGALVAQLALLVLGLLHALLLALLLGRLRRLRARARARSIQEFSLTAPLVAESARGGAS
With B3, the binding result is on record as “binds”.
